# Experimental data: article PMC7819943, “Rice protein-binding microarrays: a tool to detect cis-acting elements near promoter regions in rice”
# Chains of the proteins cited; added tags and fusions are not shown.
# UniProt Q0JBA9, entry or part of it: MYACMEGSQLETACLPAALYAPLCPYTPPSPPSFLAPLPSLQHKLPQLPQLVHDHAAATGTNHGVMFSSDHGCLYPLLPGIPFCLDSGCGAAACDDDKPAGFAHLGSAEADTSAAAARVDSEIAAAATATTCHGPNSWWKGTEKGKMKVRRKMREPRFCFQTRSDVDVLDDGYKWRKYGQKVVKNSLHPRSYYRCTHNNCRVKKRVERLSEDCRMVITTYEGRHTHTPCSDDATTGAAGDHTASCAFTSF
# The other results are listed elsewhere or left out.
# Biological target: OsWRKY34 (Oryza sativa, UniProt Q0JBA9 1-250)
# Assay: protein-binding microarray (RPBM); PBS, 2% BSA, 51.3 ng/ul salmon testes DNA, 50 uM zinc acetate, 200 nM TF, 25 C, 1 h; high values mean tight binding
# Details: protein: recombinant; tags: N-terminal polyhistidine and DsRed monomer fusion (pET32a); label: CyDye5-dUTP incorporated in the synthesized complementary strand; 3' TTTTT single-stranded linker to array surface; dsDNA, one strand shown
# Procedure, shortened: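 Transcription factors were each fused at the N-terminus to a polyhistidine tag plus DsRed and expressed in E. coli BL21-CodonPlus before Ni–NTA purification. Binding to a double-stranded custom Agilent array was carried out with 200 nM protein at 25 °C for 1 h in PBS, 2% BSA, salmon testes DNA and 50 µM zinc acetate. The binding signal is per-feature fluorescence intensity, in arbitrary units, on an Axon 4000B scanner.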
row,Sequence,binding signal
1,TACTGATCATGGCTGTTCTGAACCTTGTACTGTGCCATCTCGGAGTCACCTAGTGCAG,9040 fluorescence intensity (a.u.)
2,TTTCCTTTACTTTGGTGGTTCTTTTTTTTTTCTTTGTTTCCGGAGTCACCTAGTGCAG,11400 fluorescence intensity (a.u.)
3,AGTGGTTGTTTTCTTGGATGGTTGCCGCTGCGCCCTGACCCGGAGTCACCTAGTGCAG,11000 fluorescence intensity (a.u.)
4,CACACGCACGCTACCCGAACTACTGAGTTCTCTATTAAATCGGAGTCACCTAGTGCAG,8560 fluorescence intensity (a.u.)
5,ATTCCTAATGTTTGACTGACAGGTGGGGTCTGGTGAATTCCGGAGTCACCTAGTGCAG,8290 fluorescence intensity (a.u.)
6,GCATCGTTCTCGTCGATTCCGAGCCCTCGTCGCGCATTTCCGGAGTCACCTAGTGCAG,10100 fluorescence intensity (a.u.)
7,ATGCTTTGTTGACCTGTGGTCAATTTGTGTTTTTAGCCATCGGAGTCACCTAGTGCAG,9080 fluorescence intensity (a.u.)
8,CCATTTTCGGCCCATTCCTTCCTCTTCTCTCTCCCTTGCGCGGAGTCACCTAGTGCAG,8200 fluorescence intensity (a.u.)
9,TCACCTGGTCAGAACACATCTTCTTCCTCTTGCCAATTAACGGAGTCACCTAGTGCAG,8080 fluorescence intensity (a.u.)
10,GTCGGCGCCCATAGTTTTTTTCCGCAAGGGTTTTCTACGTCGGAGTCACCTAGTGCAG,8810 fluorescence intensity (a.u.)
11,GGGTTACGACTCCGACCAACCTCGCCGTCGCCAAGCTCGCCGGAGTCACCTAGTGCAG,8090 fluorescence intensity (a.u.)
12,CCTCTTTTAGCATTTACCATCATTGCGTTCTATATTACATCGGAGTCACCTAGTGCAG,8200 fluorescence intensity (a.u.)
13,CTCTCTCCTACTGTAGGCCACCACCACCGCGACCGCACGACGGAGTCACCTAGTGCAG,9340 fluorescence intensity (a.u.)
14,AAAAATGACCAACGCAACTGTATTAGCGTGTGCTATCCACCGGAGTCACCTAGTGCAG,9390 fluorescence intensity (a.u.)
15,CTCTCTCTCTCTCTCTCTATCTATCTGATCGTTAATCCTTCGGAGTCACCTAGTGCAG,10200 fluorescence intensity (a.u.)
16,GCACTGTTTCTCAAGTTCTTGTATATTGGTCTGATTCTGTCGGAGTCACCTAGTGCAG,8880 fluorescence intensity (a.u.)
17,CCGCTCGTCTTATTTGAAATTTTTCTATGATTAGTATTTTCGGAGTCACCTAGTGCAG,10300 fluorescence intensity (a.u.)
18,CTGATCTTTTCTTTTTTCAGGTGTTTTGTTTTTGGCAGTACGGAGTCACCTAGTGCAG,10600 fluorescence intensity (a.u.)
19,TAAGTACAGTTTTACACTATTCACGTCCAACGTTTGACCGCGGAGTCACCTAGTGCAG,9900 fluorescence intensity (a.u.)
20,GAGCAATTTCCTTTTTTTTTAACCTGCTTTTTCTCTCTCTCGGAGTCACCTAGTGCAG,9440 fluorescence intensity (a.u.)
21,CATCCTTCATCGTAGCACCCGTTTCTACCTACGCATTTTCCGGAGTCACCTAGTGCAG,12500 fluorescence intensity (a.u.)
22,ACTTCCACACGGTGATCTGCAACTCAAAGTACTATCAGAACGGAGTCACCTAGTGCAG,8180 fluorescence intensity (a.u.)
23,ATGATCAGATCACGTGCCTATGCAGAGCATCTTCTTGGTTCGGAGTCACCTAGTGCAG,8040 fluorescence intensity (a.u.)
24,CCTTGTGGACACTTGTATTTGTCATGGGGTTTATAAAAAACGGAGTCACCTAGTGCAG,8420 fluorescence intensity (a.u.)
25,TGGTACGTCATCCGTGTATGAGTCGGTTATTAAGTTTGTTCGGAGTCACCTAGTGCAG,8690 fluorescence intensity (a.u.)
26,CTCGTCGGCTGGGTGGGTGTGGTGTGGGTGGCCACCGTCACGGAGTCACCTAGTGCAG,15000 fluorescence intensity (a.u.)
27,AGTTGGATTTGCGGCTTTGGAAACTTTCTAGCTTCACTACCGGAGTCACCTAGTGCAG,8680 fluorescence intensity (a.u.)

row,Sequence,binding signal
1,TGCTTTGCGTGTTTGTCTTTCAGGGTAGCTTTGAGGCTTTCGGAGTCACCTAGTGCAG,9440 fluorescence intensity (a.u.)
2,CGTTGTCATTCATAGTGGTAGGTTCTCAGTTTTGCACTGACGGAGTCACCTAGTGCAG,10700 fluorescence intensity (a.u.)
3,AGTTATCCTGTTCCCACGTAATGCTGTTATGTAGATTTTCCGGAGTCACCTAGTGCAG,12200 fluorescence intensity (a.u.)
4,TGTTACATATTTCGCTTTTTTAACTTCCACTCCTATTATTCGGAGTCACCTAGTGCAG,11900 fluorescence intensity (a.u.)
5,ATCCGCTTGTTCCTAGTTATTAATTAATTATCTTTTAAAACGGAGTCACCTAGTGCAG,8710 fluorescence intensity (a.u.)
6,TGGGTCACTGTAATTTTCCTTTCGTACACATTTGGTCGCTCGGAGTCACCTAGTGCAG,9260 fluorescence intensity (a.u.)
7,TCATCCTAGAACATCCATCAGATTGCTACATTCTGTCTAACGGAGTCACCTAGTGCAG,8040 fluorescence intensity (a.u.)
8,TTCATGTTTTTACTCTTTTTATATATCATAAGCTTTGATTCGGAGTCACCTAGTGCAG,8250 fluorescence intensity (a.u.)
9,CGTTTGATAGGCCATAGCCAATAATCTTCATGTTTCTTTCCGGAGTCACCTAGTGCAG,9430 fluorescence intensity (a.u.)
10,CCTCTCTATTTCTCTCGTCAACAATTAGCGCTCTCTATTCCGGAGTCACCTAGTGCAG,10100 fluorescence intensity (a.u.)
11,GGCAGCCGTGATCTTTGCGAGCATTCTTTCTTCCACTTAGCGGAGTCACCTAGTGCAG,9640 fluorescence intensity (a.u.)
12,GCTAGCCAAATTGTGGTTTTATTTCATTGGCCAAAACTGTCGGAGTCACCTAGTGCAG,8160 fluorescence intensity (a.u.)
13,TATAAGAGCTCACGCGGCCATGTCGTTCTTCGCGCGCGCTCGGAGTCACCTAGTGCAG,12700 fluorescence intensity (a.u.)
14,AACCGCTTACATCATATATTATATTATTTTACTCGCTCTACGGAGTCACCTAGTGCAG,9930 fluorescence intensity (a.u.)
15,TGTGTTGGCTGCCATCCTATGCACCTACCTACACCTCCCTCGGAGTCACCTAGTGCAG,9620 fluorescence intensity (a.u.)
16,CGATCACCATCAACACAAGCTATATCTCGATCGATCGCCACGGAGTCACCTAGTGCAG,8060 fluorescence intensity (a.u.)
17,GGGCTGCCTCCATCGTCATCGATCCATCTCCGTATCTCTCCGGAGTCACCTAGTGCAG,11700 fluorescence intensity (a.u.)
18,CCCGGCCTTGTCCTCCGTGCTCCGCGACGGCCGCTTCCCGCGGAGTCACCTAGTGCAG,9710 fluorescence intensity (a.u.)
19,GTCCCGTCGCAATCATGTTAACCTCATCCTCATTCGTCACCGGAGTCACCTAGTGCAG,15900 fluorescence intensity (a.u.)
20,ATCGCCAGCCTGACCTGCTGCCCGCACCCAAAAATATCCCCGGAGTCACCTAGTGCAG,8200 fluorescence intensity (a.u.)
21,TTCATCGTGCTTACGCCCACCTACGGCCTCGACTTCTTCCCGGAGTCACCTAGTGCAG,12600 fluorescence intensity (a.u.)
22,CATTTTCCGTTTTCGTGTCATCTTTATCAACATATGCACGCGGAGTCACCTAGTGCAG,9060 fluorescence intensity (a.u.)
23,ATACATTACAAAAACCATGTTATGTCTTTCTCTTTCAATCCGGAGTCACCTAGTGCAG,8530 fluorescence intensity (a.u.)
24,TCGCCCTACCGCCGTCGTCGCTGTCCCGCTGGCCGCTGCTCGGAGTCACCTAGTGCAG,10800 fluorescence intensity (a.u.)
25,CCTTAGGTTGAGCATATACTCATTTTTAGTGCATCTTTTACGGAGTCACCTAGTGCAG,11600 fluorescence intensity (a.u.)
26,ATATATATATATATATATATATATATATTAATGAATCGCTCGGAGTCACCTAGTGCAG,9340 fluorescence intensity (a.u.)
27,TTCATATTTTCACCGTTTGGGTAGAGTGGTGGTGGGGTGTCGGAGTCACCTAGTGCAG,10400 fluorescence intensity (a.u.)

# Some of the entries above, set out differently:
row | Sequence | binding signal
22 | CATTTTCCGTTTTCGTGTCATCTTTATCAACATATGCACGCGGAGTCACCTAGTGCAG | 9060 fluorescence intensity (a.u.)
23 | ATACATTACAAAAACCATGTTATGTCTTTCTCTTTCAATCCGGAGTCACCTAGTGCAG | 8530 fluorescence intensity (a.u.)
24 | TCGCCCTACCGCCGTCGTCGCTGTCCCGCTGGCCGCTGCTCGGAGTCACCTAGTGCAG | 10800 fluorescence intensity (a.u.)
25 | CCTTAGGTTGAGCATATACTCATTTTTAGTGCATCTTTTACGGAGTCACCTAGTGCAG | 11600 fluorescence intensity (a.u.)
